Data: PMC4068353, “Characterization of 14-3-3-ζ Interactions with Integrin Tails” (Journal of Molecular Biology, 2013)
These are yes or no findings as the source states them, for the method shown. Some binding calls cover weakened binding; strength is not graded here.

The chains behind the UniProt entries cited, without tags or fusion partners. Where a name states a change or a piece, a line headed by the entry shows the natural chain unless it says otherwise.
UniProt P63104: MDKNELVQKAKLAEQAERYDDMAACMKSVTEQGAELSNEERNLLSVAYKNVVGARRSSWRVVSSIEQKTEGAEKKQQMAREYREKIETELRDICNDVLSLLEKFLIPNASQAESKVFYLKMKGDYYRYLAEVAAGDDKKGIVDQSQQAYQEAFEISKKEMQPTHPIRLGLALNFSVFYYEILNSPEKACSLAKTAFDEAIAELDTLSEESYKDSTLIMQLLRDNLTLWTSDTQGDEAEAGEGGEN

What was measured:
[1] = molecular target: β1A integrin cytoplasmic tail, wild type (human (from the printed UniProt entry)); test: NMR titration; 15N-1H HSQC of 15N-labeled integrin tail (0.1 mM) before and after addition of unlabeled 14-3-3-ζ (wt or variant; equimolar, 0.1 mM); 20 mM sodium phosphate, 50 mM NaCl, pH 6.5, 5% D2O, 25 °C; read-out: loss of resonance intensity (I/Io); both purified
[2] = molecular target: T1, β2 integrin cytoplasmic tail, wild type (human (from the printed UniProt entry)); test: NMR titration; data not shown: β2 integrin tail with 14-3-3-ζ wt, S58A and S58E; both purified
[3] = molecular target: T1, β2 integrin cytoplasmic tail, wild type (human); test: NMR titration; 15N-1H HSQC of 15N-labeled integrin tail (0.1 mM) before and after addition of unlabeled 14-3-3-ζ (wt or variant; equimolar, 0.1 mM); 20 mM sodium phosphate, 50 mM NaCl, pH 6.5, 5% D2O, 25 °C; read-out: loss of resonance intensity (I/Io); both purified
[4] = molecular target: β1D integrin cytoplasmic tail, wild type (human (from the printed UniProt entry)); test: as above
[5] = molecular target: T2, β3 integrin cytoplasmic tail, wild type (human (from the printed UniProt entry)); test: as above
T2 sequence: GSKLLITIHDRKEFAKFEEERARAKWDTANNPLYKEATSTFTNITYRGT

[6] = molecular target: T3, β7 integrin cytoplasmic tail, wild type (human (from the printed UniProt entry)); test: as above
T3 sequence: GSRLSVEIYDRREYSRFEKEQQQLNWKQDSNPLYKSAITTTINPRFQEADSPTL

[7] = molecular target: T4, α4 integrin cytoplasmic tail, wild type (human (from the printed UniProt entry)); test: ITC; integrin tail fragment in the cell (80-200 μM), 14-3-3-ζ in the syringe (0.75-2 mM); 298 K; 20 mM sodium phosphate, 50 mM NaCl, pH 6.5; one-site model; both purified
T4 sequence: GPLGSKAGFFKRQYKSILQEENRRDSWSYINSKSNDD

[8] = molecular target: T1, β2 integrin cytoplasmic tail, wild type (human); test: as above

Measured: binding

14-3-3-ζ S58E (from UniProt P63104 1-245)
binds weakly: [1] | [2]

14-3-3-ζ S58A (from UniProt P63104 1-245)
binds weakly: [1] | [2]

14-3-3-ζ (from UniProt P63104 1-245)
binds weakly: all assays above
